{"source": "PubChem BioAssay AID1347075", "about": "(National Center for Advancing Translational Sciences (NCATS), 2019)", "note": "“And” between values parts separate entries of the source, which are not always exact repeats. Equal values may be shown once. Among all 400,000 compounds or so, about 5,500 (1.4%) were called active. Inconclusive results, whose numbers are uncertain, are shown with a selection of clear calls. Calls come from the whole dose curve; as a rule, active = well fitted cell-killing curve with a large enough effect; inconclusive = small, poorly fitted or top-dose-only effect, or effect the other way; inactive = flat fitted curve, though single readings scatter. Where the call is inconclusive, the potency comes from a doubtful curve fit. Potency is the fitted concentration of half-maximal effect.", "data": [{"experiment": "qHTS assay for MDR1-selective chemotherapeutics: Primary screen using the parental adenocarcinoma cell KB-3-1; note: nearly all actives have a fitted effect of over 60% in size", "conditions": "KB-3-1 viability, CellTiter-Glo ATP luminescence, 72 h; series mostly up to 46.1 µM", "how_it_was_run": "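KB-3-1 parental drug-naive adenocarcinoma cells in DMEM/10% FBS, incubated 72 h at 37 C with pin-transferred compounds across a concentration series. Viability by CellTiter-Glo luminescence; concentration-response curves fitted after normalization.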", "values": [{"smiles": "CCN(CC)CCNc1nc2c(c(=O)[nH]c(=O)n2C)n1CCCc1ccccc1", "Potency": "inconclusive: 29.1 µM [rising, single point]"}, {"smiles": "Cc1cccc(NC(=O)CSc2nc3ccccc3nc2N2CC(C)OC(C)C2)c1", "note": "(centres undefined)", "Potency": "inconclusive: 18.4 µM [cytotoxic, single point]"}, {"smiles": "CCCCc1ccc(NC(=O)N2CCN(c3cc(C)nc4ccccc34)CC2)c(C)c1", "Potency": "inconclusive: 29.1 µM [cytotoxic, single point]"}, {"smiles": "O=C(CCl)Nc1c[nH]c(=O)[nH]c1=O", "Potency": "inconclusive: 29.1 µM [cytotoxic, single point]"}, {"smiles": "O=C(CSc1nc2ccc(Cl)cc2o1)NCc1ccc2c(c1)OCO2", "Potency": "inconclusive: 18.4 µM [cytotoxic, single point]"}, {"smiles": "CCCCCCN1C[C@@H](n2cc(COC(=O)c3ccccc3)nn2)[C@H](O)C[C@@H]1c1ccc(C)cc1", "Potency": "inconclusive: 29.1 µM [cytotoxic, single point]"}, {"smiles": "Cc1ccc(NC(=O)CN2C(=O)c3ccccc3Sc3ncccc32)c(C)c1", "Potency": "inactive"}, {"smiles": "Cc1ccc(NC(=O)C2CCN(S(=O)(=O)c3ccc4c(c3)OCCO4)CC2)nc1", "Potency": "inactive"}, {"smiles": "CC1=CC(C)(C)N2C(=O)C3(SCC(=O)N3c3ccc(F)cc3)c3cc(C)cc1c32", "note": "(centres undefined)", "Potency": "inconclusive: 18.4 µM [cytotoxic, single point]"}, {"smiles": "CC(=O)c1cccc(NC(=O)c2ccc(N(Cc3ccccc3C)S(C)(=O)=O)cc2)c1", "Potency": "inconclusive: 32.6 µM [cytotoxic, single point]"}, {"smiles": "COc1ccccc1N=Nc1[nH]c2ccc(C)cc2c1O", "Potency": "inactive"}, {"smiles": "COc1ccc(CC2(CO)CCN(Cc3ccc(OC(F)(F)F)cc3)CC2)cc1", "Potency": "inconclusive: 6.51 µM [cytotoxic, partial curve]"}, {"smiles": "CCN(c1ccccc1)S(=O)(=O)c1ccc(Cl)c(NC(=O)CN2CCCCCC2)c1", "Potency": "inconclusive: 20.6 µM [cytotoxic, single point]"}, {"smiles": "Oc1c(C(Nc2ccccn2)c2ccccn2)ccc2cccnc12", "note": "(centres undefined)", "Potency": "active: 14.6 µM"}, {"smiles": "O=C1N/C(=N\\N=C\\c2ccccn2)SC1Cc1cccc(SC(F)F)c1", "note": "(centres undefined)", "Potency": "inconclusive: 2.59 µM [cytotoxic, full curve, poor fit]"}, {"smiles": "CCCNC(=S)N(Cc1ccccc1)Cc1nc2ccccc2c(=O)[nH]1", "Potency": "inconclusive: 9.2 µM [cytotoxic, partial curve, poor fit]"}, {"smiles": "Cc1ccc(N=Nc2c(N)[nH]n3c(=O)cc(-c4ccccc4)nc23)cc1", "Potency": "inconclusive: 16.4 µM [cytotoxic, single point]"}, {"smiles": "Brc1cnc(N2CCCC2)nc1N1CCOCC1", "Potency": "inconclusive: 16.4 µM [cytotoxic, partial curve]"}, {"smiles": "Cc1cccc(Nc2nc(N)nc(-c3oc4ccccc4c3C)n2)c1", "Potency": "inconclusive: 18.4 µM [cytotoxic, single point]"}, {"smiles": "O=C(Nc1cccc(-c2nc3ccccc3[nH]2)c1)c1cccc(NC(=O)c2ccco2)c1", "Potency": "inconclusive: 16.4 µM [cytotoxic, single point]"}, {"smiles": "COc1ccccc1NS(=O)(=O)c1cccc(NC(=O)NCCCl)c1", "Potency": "inactive"}, {"smiles": "CCOc1ccc(N(Cc2ccc(C(=O)O)cc2)S(=O)(=O)c2ccc(C)cc2)cc1", "Potency": "inconclusive: 29.1 µM [cytotoxic, single point]"}, {"smiles": "Cc1noc(C)c1C(=O)Nc1nccs1", "Potency": "inactive"}, {"smiles": "O=C(NNC(=O)C1CCC1)c1ccc(Cl)cc1", "Potency": "inconclusive: 3.66 µM [cytotoxic, partial curve, poor fit]"}, {"smiles": "O=S(=O)(c1cccc2ccccc12)N1CCC2CC1c1cc(Cl)ccc12", "note": "(centres undefined)", "Potency": "inactive"}, {"smiles": "COc1cccc(N=Nc2c(N)[nH]n3c(=O)c4c(nc23)CCCC4)c1", "Potency": "inconclusive: 23.1 µM [cytotoxic, single point]"}, {"smiles": "O=C(Nc1nnc(-c2ccc(F)cc2)o1)c1ccc(S(=O)(=O)N2CCOCC2)cc1", "Potency": "active: 4.11 µM"}, {"smiles": "CN(C)C(=O)c1ccc(NC(=O)c2cc(-c3ccco3)nc3ccccc23)cc1", "Potency": "inconclusive: 16.4 µM [rising, single point]"}, {"smiles": "CCOC(=O)N1CCN(Cc2cc(Cl)c3cccnc3c2O)CC1", "Potency": "inconclusive: 3.66 µM [cytotoxic, full curve]"}, {"smiles": "COc1ccc(-c2noc(CSc3nnc(-c4ccncc4)n3-c3ccc(OC)cc3)n2)cc1", "Potency": "inconclusive: 18.4 µM [cytotoxic, single point]"}, {"smiles": "C=C1[C@@H](O)[C@H](Cc2ccccc2)N(Cc2ccccc2Br)S1(=O)=O", "Potency": "inconclusive: 29.1 µM [cytotoxic, single point]"}, {"smiles": "C(=N\\Nc1nccc(-c2cccnc2)n1)/c1ccccc1", "Potency": "inconclusive: 5.8 µM [cytotoxic, full curve]"}, {"smiles": "CC1=CC(=O)N(c2cccc3c(N4C(=O)C=C(C)C4=O)cccc23)C1=O", "Potency": "inconclusive: 18.4 µM [rising, single point]"}, {"smiles": "Cc1nc(NC(=O)c2ccccc2)sc1C1(C)CC(c2c(Cl)cccc2Cl)=NO1", "note": "(centres undefined)", "Potency": "inconclusive: 29.1 µM [cytotoxic, single point]"}, {"smiles": "COc1ccc(-c2cc(C(=O)N3CCN(c4ccccc4O)CC3)c3ccccc3n2)cc1OC", "Potency": "inconclusive: 18.4 µM [cytotoxic, single point]"}, {"smiles": "CCOCCn1c(=O)c2c(nc3n2CC(C)CN3CCc2ccccc2)n(C)c1=O", "note": "(centres undefined)", "Potency": "inactive"}, {"smiles": "COc1cccc(CNC(=O)CCC2CCCN(C(=O)c3cccc4c(C)c(C)[nH]c34)C2)c1", "note": "(centres undefined)", "Potency": "inconclusive: 29.1 µM [cytotoxic, single point]"}, {"smiles": "C/C(=N\\O)c1ccc2c3c([nH]c2c1)CCCC3", "Potency": "active: 8.2 µM"}, {"smiles": "CCN(CC)CCCNC(=O)C(C)n1nc(C)n2c(cc3occc32)c1=O", "note": "(centres undefined)", "Potency": "inactive"}, {"smiles": "COc1ccc(Cl)cc1NC(=O)COC(=O)CC(C)(C)CC1=NS(=O)(=O)c2ccccc2N1", "Potency": "inconclusive: 29.1 µM [cytotoxic, single point]"}, {"smiles": "Cc1noc(C)c1S(=O)(=O)N1CCN(c2ccc([N+](=O)[O-])cc2)CC1", "Potency": "inconclusive: 1.84 µM [rising, full curve]"}, {"smiles": "Cc1onc(-c2ccccc2)c1-c1nnc(CN2CCN(S(=O)(=O)c3ccccc3F)CC2)o1", "Potency": "inconclusive: 29.1 µM [cytotoxic, partial curve, poor fit]"}, {"smiles": "CC(C)c1ccc(NC(=O)c2cc(S(=O)(=O)NC3CCCCC3)ccc2F)cc1", "Potency": "inconclusive: 18.4 µM [cytotoxic, single point]"}, {"smiles": "CC(=O)Oc1ccc(C2=Cc3ccc(OC(C)=O)cc3OC2C)cc1", "note": "(centres undefined)", "Potency": "inconclusive: 20.6 µM [cytotoxic, single point]"}, {"smiles": "Cc1cnc(CN2CCc3c([nH]c4ccccc34)C2C2CCCCC2)[nH]1", "note": "(centres undefined)", "Potency": "inactive"}, {"smiles": "O=C(C1CCC(CNS(=O)(=O)c2cccs2)CC1)N1CCN(c2ccc(Cl)cc2)CC1", "note": "(centres undefined)", "Potency": "inconclusive: 10.3 µM [cytotoxic, partial curve, poor fit] and inconclusive: 9.2 µM [cytotoxic, partial curve]"}, {"smiles": "CN(C)c1ccc(CNc2ncnc3sccc23)cc1", "Potency": "inconclusive: 3.66 µM [cytotoxic, partial curve, poor fit]"}, {"smiles": "C[C@H](NC(=O)c1[nH]cnc1C(=O)N[C@@H](C)CO)c1ccccc1", "Potency": "inactive"}, {"smiles": "COc1ccc(C(=O)CSc2nnc(-c3ccco3)c(-c3ccco3)n2)cc1", "Potency": "inconclusive: 32.6 µM [cytotoxic, single point]"}, {"smiles": "O=C1NC[C@H](CCCCN2C[C@H](Cc3ccc(O)cc3)N(CCC3CCCCC3)C(=O)C2=O)N(CC2CCCCC2)C1=O", "Potency": "inconclusive: 10.3 µM [rising, partial curve]"}, {"smiles": "COc1ccccc1-n1c(-c2ccccc2)c[nH]c1=S", "Potency": "inactive"}, {"smiles": "COCCN(C(=O)C1=COCCO1)c1c(N)n(CC(C)C)c(=O)[nH]c1=O", "Potency": "inconclusive: 25.9 µM [rising, partial curve, poor fit]"}, {"smiles": "Cc1ccsc1/C=C1\\SC(N2CC(C)OC(C)C2)=NC1=O", "note": "(centres undefined)", "Potency": "inconclusive: 5.8 µM [rising, partial curve]"}, {"smiles": "CC1(C)CC(=O)c2cc(C(=O)NCc3ccccc3)c(=O)[nH]c2C1", "Potency": "inconclusive: 32.6 µM [rising, single point]"}, {"smiles": "CCOc1cc(NC(=O)c2ccco2)c(OCC)cc1NC(=O)CCC(=O)NCc1cccnc1", "Potency": "inconclusive: 23.1 µM [rising, single point]"}, {"smiles": "CC(C)(C)c1ccc(OCCC(=O)Nc2cccc(S(=O)(=O)N3CCCC3)c2)cc1", "Potency": "inconclusive: 18.4 µM [cytotoxic, partial curve, poor fit]"}, {"smiles": "CCn1c(SCC(=O)c2c[nH]c3ccccc23)nnc1-c1cccs1", "Potency": "active: 16.4 µM"}, {"smiles": "Cc1nn(-c2ccc(Cl)cc2)c2sc(C(=O)c3c(N)n(C)c(=O)n(C)c3=O)cc12", "Potency": "inactive"}, {"smiles": "COC(=O)c1c(NC(=O)c2ccccc2)sc(C(=O)c2ccccc2)c1C", "Potency": "inconclusive: 20.6 µM [cytotoxic, single point]"}, {"smiles": "CCCC(=O)N1CCC1(C)C(=O)Nc1ccc2scnc2c1", "note": "(centres undefined)", "Potency": "inactive"}, {"smiles": "CCOc1ccccc1N1CCN(C(=O)C(Sc2ccccc2)c2ccccc2)CC1", "note": "(centres undefined)", "Potency": "inconclusive: 18.4 µM [cytotoxic, single point]"}, {"smiles": "COc1ccccc1-c1oc2ccccc2c1-c1ccc2cc[nH]c2c1", "Potency": "inconclusive: 20.6 µM [cytotoxic, single point]"}, {"smiles": "O=c1c2c(C(F)(F)F)cc(C(F)(F)F)nc2[nH]n1-c1ccccc1", "Potency": "inconclusive: 20.6 µM [cytotoxic, single point]"}, {"smiles": "COc1cc(C(=O)NCC(c2ccco2)N2CCCC2)ccc1OCc1c(C)noc1C", "note": "(centres undefined)", "Potency": "inconclusive: 8.2 µM [cytotoxic, partial curve]"}]}]}
